From publication doi:10.1101/2023.11.22.568357 (bioRxiv, 2023)
These are yes or no findings as the source states them, for the method shown. For some assays here: Binding can be weak; no strength is given. For some assays here: In cells and extracts the contact can be indirect. For some assays here: Tags and fused reporters may be left off the sequences shown.

How the values were obtained:
[1] = biological target: T1, LRRC4B(36-576)-hFc (human) (UniProt Q9NT99); assay: ELISA
T1 sequence: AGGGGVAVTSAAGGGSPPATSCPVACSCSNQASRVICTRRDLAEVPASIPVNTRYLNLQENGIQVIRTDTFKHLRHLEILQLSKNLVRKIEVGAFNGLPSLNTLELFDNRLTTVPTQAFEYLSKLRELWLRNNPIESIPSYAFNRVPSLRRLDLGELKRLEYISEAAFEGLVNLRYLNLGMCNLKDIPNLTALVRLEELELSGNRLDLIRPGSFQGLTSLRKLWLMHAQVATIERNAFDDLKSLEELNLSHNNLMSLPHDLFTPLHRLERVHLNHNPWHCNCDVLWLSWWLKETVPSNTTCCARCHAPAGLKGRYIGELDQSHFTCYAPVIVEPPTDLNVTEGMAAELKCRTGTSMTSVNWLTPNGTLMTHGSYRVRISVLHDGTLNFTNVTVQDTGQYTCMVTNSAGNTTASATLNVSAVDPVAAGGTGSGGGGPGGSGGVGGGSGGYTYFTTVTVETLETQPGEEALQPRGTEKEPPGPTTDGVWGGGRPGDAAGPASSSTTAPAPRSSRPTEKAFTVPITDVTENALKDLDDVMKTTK

[2] = biological target: T2, LRRC4B(498-576)-hFc (human) (UniProt Q9NT99); assay: ELISA
T2 sequence: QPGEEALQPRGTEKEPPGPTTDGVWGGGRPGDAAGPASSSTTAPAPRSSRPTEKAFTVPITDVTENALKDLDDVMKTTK

[3] = biological target: T3, FLAG-tagged LRRC4B full-length (36-713) (human) (UniProt Q9NT99); assay: co-IP
T3 sequence: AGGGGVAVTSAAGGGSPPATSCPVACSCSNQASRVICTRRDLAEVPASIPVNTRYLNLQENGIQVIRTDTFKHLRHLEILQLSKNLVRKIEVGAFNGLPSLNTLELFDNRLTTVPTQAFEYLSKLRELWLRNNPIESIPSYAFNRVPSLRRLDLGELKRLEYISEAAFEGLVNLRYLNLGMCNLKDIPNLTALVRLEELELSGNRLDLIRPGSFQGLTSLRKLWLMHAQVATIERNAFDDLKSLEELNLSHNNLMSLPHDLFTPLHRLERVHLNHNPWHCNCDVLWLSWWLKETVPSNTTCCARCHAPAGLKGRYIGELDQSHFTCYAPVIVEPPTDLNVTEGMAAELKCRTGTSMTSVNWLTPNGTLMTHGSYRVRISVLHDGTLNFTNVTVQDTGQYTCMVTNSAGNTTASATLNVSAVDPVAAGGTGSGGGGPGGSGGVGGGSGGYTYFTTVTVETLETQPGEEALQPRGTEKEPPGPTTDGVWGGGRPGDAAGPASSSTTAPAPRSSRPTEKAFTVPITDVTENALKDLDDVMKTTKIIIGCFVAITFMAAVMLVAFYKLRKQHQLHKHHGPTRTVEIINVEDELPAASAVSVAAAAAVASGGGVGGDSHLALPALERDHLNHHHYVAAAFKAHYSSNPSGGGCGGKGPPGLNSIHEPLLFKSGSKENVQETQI

[4] = biological target: T4, FLAG-tagged LRRC4B(157-713) (human) (UniProt Q9NT99); assay: co-IP
T4 sequence: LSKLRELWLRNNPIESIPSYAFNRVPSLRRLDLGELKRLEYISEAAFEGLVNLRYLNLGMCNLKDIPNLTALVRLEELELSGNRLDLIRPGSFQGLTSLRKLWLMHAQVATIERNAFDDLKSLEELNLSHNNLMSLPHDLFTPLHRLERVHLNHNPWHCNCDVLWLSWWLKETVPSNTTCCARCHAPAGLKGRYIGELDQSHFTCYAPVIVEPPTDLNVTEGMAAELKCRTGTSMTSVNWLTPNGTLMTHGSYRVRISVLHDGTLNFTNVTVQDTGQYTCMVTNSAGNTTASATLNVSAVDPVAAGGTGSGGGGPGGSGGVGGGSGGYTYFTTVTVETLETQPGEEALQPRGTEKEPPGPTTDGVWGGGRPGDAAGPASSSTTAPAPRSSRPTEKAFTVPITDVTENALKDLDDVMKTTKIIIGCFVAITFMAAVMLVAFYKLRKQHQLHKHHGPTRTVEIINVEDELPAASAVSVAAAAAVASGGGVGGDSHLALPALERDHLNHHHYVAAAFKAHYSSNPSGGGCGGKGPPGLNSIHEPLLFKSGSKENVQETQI

[5] = biological target: T5, FLAG-tagged LRRC4B(230-713) (human) (UniProt Q9NT99); assay: co-IP
T5 sequence: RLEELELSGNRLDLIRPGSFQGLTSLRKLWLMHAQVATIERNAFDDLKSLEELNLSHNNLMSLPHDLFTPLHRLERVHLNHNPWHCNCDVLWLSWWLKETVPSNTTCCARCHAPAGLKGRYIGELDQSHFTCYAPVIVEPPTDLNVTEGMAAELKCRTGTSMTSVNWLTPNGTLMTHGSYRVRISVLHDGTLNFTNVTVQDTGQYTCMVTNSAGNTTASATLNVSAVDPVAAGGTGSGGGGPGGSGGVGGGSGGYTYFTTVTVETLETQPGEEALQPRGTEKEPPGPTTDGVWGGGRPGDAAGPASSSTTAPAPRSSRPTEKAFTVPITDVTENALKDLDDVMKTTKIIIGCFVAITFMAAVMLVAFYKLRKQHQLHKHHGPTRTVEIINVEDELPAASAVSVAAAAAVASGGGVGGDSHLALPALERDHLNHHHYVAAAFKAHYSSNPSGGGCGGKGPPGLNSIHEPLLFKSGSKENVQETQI

[6] = biological target: T6, FLAG-tagged LRRC4B(36-576) (human) (UniProt Q9NT99); assay: co-IP
T6 sequence: T1 sequence

[7] = biological target: T7, FLAG-tagged LRRC4B(364-576) (human) (UniProt Q9NT99); assay: co-IP
T7 sequence: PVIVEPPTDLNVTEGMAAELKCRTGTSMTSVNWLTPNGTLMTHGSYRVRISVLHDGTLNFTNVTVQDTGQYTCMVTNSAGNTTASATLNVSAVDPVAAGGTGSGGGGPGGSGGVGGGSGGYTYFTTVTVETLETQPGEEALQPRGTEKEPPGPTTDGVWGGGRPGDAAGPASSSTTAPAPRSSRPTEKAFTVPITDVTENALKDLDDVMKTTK

[8] = biological target: T8, FLAG-tagged LRRC4B(364-713) (human) (UniProt Q9NT99); assay: co-IP
T8 sequence: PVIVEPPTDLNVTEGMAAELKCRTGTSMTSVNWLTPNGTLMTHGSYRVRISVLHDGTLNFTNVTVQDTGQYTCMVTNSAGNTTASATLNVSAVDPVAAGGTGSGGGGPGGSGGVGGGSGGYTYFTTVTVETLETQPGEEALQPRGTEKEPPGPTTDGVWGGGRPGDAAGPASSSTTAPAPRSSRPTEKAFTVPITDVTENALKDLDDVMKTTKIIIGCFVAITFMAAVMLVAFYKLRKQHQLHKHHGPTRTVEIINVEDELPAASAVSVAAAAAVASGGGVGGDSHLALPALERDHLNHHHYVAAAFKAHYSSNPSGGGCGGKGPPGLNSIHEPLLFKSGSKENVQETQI

[9] = biological target: T9, FLAG-tagged LRRC4B(453-576) (human) (UniProt Q9NT99); assay: co-IP
T9 sequence: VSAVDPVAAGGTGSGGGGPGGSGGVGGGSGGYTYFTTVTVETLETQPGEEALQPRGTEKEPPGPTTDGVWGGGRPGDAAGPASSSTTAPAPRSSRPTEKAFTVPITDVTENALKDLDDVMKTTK

[10] = biological target: T10, FLAG-tagged LRRC4B(453-713) (human) (UniProt Q9NT99); assay: co-IP
T10 sequence: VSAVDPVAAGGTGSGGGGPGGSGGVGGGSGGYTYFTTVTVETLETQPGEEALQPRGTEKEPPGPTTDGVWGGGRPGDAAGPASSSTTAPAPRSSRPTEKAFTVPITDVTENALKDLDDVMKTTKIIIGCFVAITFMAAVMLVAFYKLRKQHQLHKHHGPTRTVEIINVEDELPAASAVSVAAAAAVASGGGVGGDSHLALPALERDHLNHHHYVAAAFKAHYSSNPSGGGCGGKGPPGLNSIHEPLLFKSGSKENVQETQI

[11] = biological target: T11, FLAG-tagged LRRC4B(484-576) (human) (UniProt Q9NT99); assay: co-IP
T11 sequence: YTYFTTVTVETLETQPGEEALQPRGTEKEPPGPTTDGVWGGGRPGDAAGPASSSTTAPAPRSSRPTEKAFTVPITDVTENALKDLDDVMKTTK

binding [1]: binds | binding [2]: no binding | binding [3]: binds | binding [4]: binds | binding [5]: binds | binding [6]: binds | binding [7]: binds | binding [8]: binds | binding [9]: binds | binding [10]: binds | binding [11]: binds
Substance: FAM19A5 (wild type, recombinant) (human) (ligand)
